# Test results as given in the supplement of paper PMC8728848.
# The list shows a part of the results.
# What was measured:
# Experiment in all cases: glycan array binding signal (z-score within array); higher = stronger binding
# Conditions in all cases: glycan notation: IUPAC condensed, linker removed
# GlcNAc(b1-6)GalNAc = target: GlcNAc(b1-6)GalNAc
# Summary of the method: (§1)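 Negative Z-scores can be read as non-binding. The Z-score is calculated within each array and then averaged across arrays of one protein sequence at different concentrations or buffers and across linkers. Arrays, 3228 in all, were curated from the Consortium for Functional Glycomics database and kept only where the protein sequence was available.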
# GlcNAc3Prop(b1-4)GlcNAc = target: GlcNAc3Prop(b1-4)GlcNAc
# Summary of the method: as §1
# Kdn(a2-3)Gal(b1-3)GlcNAc = target: Kdn(a2-3)Gal(b1-3)GlcNAc
# Summary of the method: as §1
# Kdn(a2-3)Gal(b1-4)GlcNAc = target: Kdn(a2-3)Gal(b1-4)GlcNAc
# Summary of the method: as §1
# [1] = target: Man(a1-2)Man(a1-2)Man(a1-3)Man
# Summary of the method: as §1
# [2] = target: Man(a1-2)Man(a1-2)Man(a1-6)[Man(a1-3)]Man
# Summary of the method: as §1
# Man(a1-2)Man(a1-3)Man = target: Man(a1-2)Man(a1-3)Man
# Summary of the method: as §1
# [3] = target: Man(a1-2)Man(a1-3)[Man(a1-2)Man(a1-6)]Man
# Summary of the method: as §1
# [4] = target: Man(a1-2)Man(a1-3)[Man(a1-2)Man(a1-6)]Man(a1-6)[Man(a1-2)Man(a1-2)Man(a1-3)]Man
# Summary of the method: as §1
# [5] = target: Man(a1-2)Man(a1-3)[Man(a1-2)Man(a1-6)]Man(a1-6)[Man(a1-2)Man(a1-2)Man(a1-3)]Man(b1-4)GlcNAc(b1-4)GlcNAc
# Summary of the method: as §1
# [6] = target: Man(a1-2)Man(a1-3)[Man(a1-2)Man(a1-6)]Man(a1-6)[Man(a1-3)[Man(a1-6)]Man(a1-6)]Man(b1-4)GlcNAc(b1-4)GlcNAc
# Summary of the method: as §1
# [7] = target: Man(a1-2)Man(a1-3)[Man(a1-6)]Man(a1-6)[Man(a1-2)Man(a1-3)]Man(b1-4)GlcNAc(b1-4)GlcNAc
# Summary of the method: as §1
# [8] = target: Man(a1-2)Man(a1-6)[Man(a1-3)]Man(a1-6)[Man(a1-2)Man(a1-2)Man(a1-3)]Man
# Summary of the method: as §1
# [9] = target: Man(a1-2)Man(a1-6)[Man(a1-3)]Man(a1-6)[Man(a1-2)Man(a1-2)Man(a1-3)]Man(b1-4)GlcNAc(b1-4)GlcNAc
# Summary of the method: as §1
# Man(a1-3)[Man(a1-6)]Man = target: Man(a1-3)[Man(a1-6)]Man
# Summary of the method: as §1
# [10] = target: Man(a1-3)[Man(a1-6)]Man(a1-6)[Man(a1-2)Man(a1-3)]Man(b1-4)GlcNAc(b1-4)GlcNAc
# Summary of the method: as §1
# [11] = target: Man(a1-3)[Man(a1-6)]Man(a1-6)[Man(a1-3)]Man
# Summary of the method: as §1
# [12] = target: Man(a1-3)[Man(a1-6)]Man(a1-6)[Man(a1-3)]Man(b1-4)GlcNAc(b1-4)GlcNAc
# Summary of the method: as §1
# [13] = target: Man(a1-3)[Man(a1-6)]Man(b1-4)GlcNAc(b1-4)GlcNAc
# Summary of the method: as §1
# Man(a1-6)Man = target: Man(a1-6)Man
# Summary of the method: as §1
# Man(b1-4)GlcNAc = target: Man(b1-4)GlcNAc
# Summary of the method: as §1
# Neu5Ac(a2-3)Gal = target: Neu5Ac(a2-3)Gal
# Summary of the method: as §1
# [14] = target: Neu5Ac(a2-3)Gal(b1-3)GalNAc
# Summary of the method: as §1
# [15] = target: Neu5Ac(a2-3)Gal(b1-3)GalNAc(b1-3)Gal(a1-4)Gal(b1-4)Glc
# Summary of the method: as §1
# [16] = target: Neu5Ac(a2-3)Gal(b1-3)GalNAc(b1-3)Gal(b1-4)GlcNAc
# Summary of the method: as §1
# [17] = target: Neu5Ac(a2-3)Gal(b1-3)GalNAc(b1-4)[Neu5Ac(a2-3)]Gal(b1-4)Glc
# Summary of the method: as §1
# [18] = target: Neu5Ac(a2-3)Gal(b1-3)GalNAc6S
# Summary of the method: as §1
# [19] = target: Neu5Ac(a2-3)Gal(b1-3)GlcNAc
# Summary of the method: as §1
# [20] = target: Neu5Ac(a2-3)Gal(b1-3)GlcNAc(b1-3)Gal(b1-3)GlcNAc
# Summary of the method: as §1
# [21] = target: Neu5Ac(a2-3)Gal(b1-3)GlcNAc6S
# Summary of the method: as §1
# [22] = target: Neu5Ac(a2-3)Gal(b1-3)[Fuc(a1-4)]GlcNAc
# Summary of the method: as §1
# [23] = target: Neu5Ac(a2-3)Gal(b1-3)[Fuc(a1-4)]GlcNAc(b1-3)Gal(b1-4)[Fuc(a1-3)]GlcNAc
# Summary of the method: as §1
# [24] = target: Neu5Ac(a2-3)Gal(b1-3)[Neu5Ac(a2-3)Gal(b1-4)]GlcNAc
# Summary of the method: as §1
# [25] = target: Neu5Ac(a2-3)Gal(b1-3)[Neu5Ac(a2-6)]GalNAc
# Summary of the method: as §1
# Neu5Ac(a2-3)Gal(b1-4)Glc = target: Neu5Ac(a2-3)Gal(b1-4)Glc
# Summary of the method: as §1
# [26] = target: Neu5Ac(a2-3)Gal(b1-4)GlcNAc
# Summary of the method: as §1
# [27] = target: Neu5Ac(a2-3)Gal(b1-4)GlcNAc(b1-2)Man(a1-3)[GlcNAc(b1-2)Man(b1-4)GlcNAc(b1-2)Man(a1-6)]Man(b1-4)GlcNAc(b1-4)GlcNAc
# Summary of the method: as §1
# [28] = target: Neu5Ac(a2-3)Gal(b1-4)GlcNAc(b1-2)Man(a1-3)[Neu5Ac(a2-6)Gal(b1-4)GlcNAc(b1-2)Man(a1-6)]Man(b1-4)GlcNAc(b1-4)GlcNAc
# Summary of the method: as §1
# [29] = target: Neu5Ac(a2-3)Gal(b1-4)GlcNAc(b1-3)Gal(b1-3)GlcNAc
# Summary of the method: as §1
# [30] = target: Neu5Ac(a2-3)Gal(b1-4)GlcNAc(b1-3)Gal(b1-4)GlcNAc
# Summary of the method: as §1
# [31] = target: Neu5Ac(a2-3)Gal(b1-4)GlcNAc(b1-3)Gal(b1-4)GlcNAc(b1-3)Gal(b1-4)GlcNAc
# Summary of the method: as §1
# [32] = target: Neu5Ac(a2-3)Gal(b1-4)GlcNAc(b1-3)Gal(b1-4)[Fuc(a1-3)]GlcNAc
# Summary of the method: as §1
# [33] = target: Neu5Ac(a2-3)Gal(b1-4)GlcNAc(b1-6)[Gal(b1-3)]GalNAc
# Summary of the method: as §1
# [34] = target: Neu5Ac(a2-3)Gal(b1-4)GlcNAc(b1-6)[Neu5Ac(a2-3)Gal(b1-3)]GalNAc
# Summary of the method: as §1
# [35] = target: Neu5Ac(a2-3)Gal(b1-4)GlcNAc6S
# Summary of the method: as §1
binder,measurement,setting,value
"TbCVNHOa (Tuber borchii), Q5MK11 (protein) MSYADSSRNAVLTNGGRTLRAECRNADGNWVTSELDLDTCIGNPNGFLGWGMQNFSHSSEDIKLEEGGRKLTCRPKTVDGGFRERQGIDLNRIQNVNGRLVFQ",glycan array binding signal (z-score),GlcNAc(b1-6)GalNAc,-0.297
same,glycan array binding signal (z-score),GlcNAc3Prop(b1-4)GlcNAc,-0.037
same,glycan array binding signal (z-score),Kdn(a2-3)Gal(b1-3)GlcNAc,-0.429
same,glycan array binding signal (z-score),Kdn(a2-3)Gal(b1-4)GlcNAc,-0.011
same,glycan array binding signal (z-score),[1],5.14
same,glycan array binding signal (z-score),[2],0.051
same,glycan array binding signal (z-score),Man(a1-2)Man(a1-3)Man,0.455
same,glycan array binding signal (z-score),[3],-0.133
same,glycan array binding signal (z-score),[4],-0.719
same,glycan array binding signal (z-score),[5],-0.347
same,glycan array binding signal (z-score),[6],-0.309
same,glycan array binding signal (z-score),[7],0.155
same,glycan array binding signal (z-score),[8],-0.18
same,glycan array binding signal (z-score),[9],0.667
same,glycan array binding signal (z-score),Man(a1-3)[Man(a1-6)]Man,-0.273
same,glycan array binding signal (z-score),[10],-0.025
same,glycan array binding signal (z-score),[11],-0.458
same,glycan array binding signal (z-score),[12],-0.22
same,glycan array binding signal (z-score),[13],-0.062
same,glycan array binding signal (z-score),Man(a1-6)Man,-0.516
same,glycan array binding signal (z-score),Man(b1-4)GlcNAc,-0.533
same,glycan array binding signal (z-score),Neu5Ac(a2-3)Gal,-0.083
same,glycan array binding signal (z-score),[14],-0.506
same,glycan array binding signal (z-score),[15],-0.488
same,glycan array binding signal (z-score),[16],-0.517
same,glycan array binding signal (z-score),[17],-0.471
same,glycan array binding signal (z-score),[18],-0.479
same,glycan array binding signal (z-score),[19],-0.483
same,glycan array binding signal (z-score),[20],-0.278
same,glycan array binding signal (z-score),[21],-0.765
same,glycan array binding signal (z-score),[22],-0.529
same,glycan array binding signal (z-score),[23],-0.397
same,glycan array binding signal (z-score),[24],-0.412
same,glycan array binding signal (z-score),[25],-0.16
same,glycan array binding signal (z-score),Neu5Ac(a2-3)Gal(b1-4)Glc,0.776
same,glycan array binding signal (z-score),[26],-0.264
same,glycan array binding signal (z-score),[27],-0.165
same,glycan array binding signal (z-score),[28],0.05
same,glycan array binding signal (z-score),[29],-0.358
same,glycan array binding signal (z-score),[30],-0.27
same,glycan array binding signal (z-score),[31],-0.329
same,glycan array binding signal (z-score),[32],-0.411
same,glycan array binding signal (z-score),[33],-0.282
same,glycan array binding signal (z-score),[34],-0.718
same,glycan array binding signal (z-score),[35],-0.522

# A second format for some results above:
binder | measurement | setting | value
TbCVNHOa (Tuber borchii), Q5MK11 (protein) MSYADSSRNAVLTNGGRTLRAECRNADGNWVTSELDLDTCIGNPNGFLGWGMQNFSHSSEDIKLEEGGRKLTCRPKTVDGGFRERQGIDLNRIQNVNGRLVFQ | glycan array binding signal (z-score) | Man(a1-6)Man | -0.516
same | glycan array binding signal (z-score) | Man(b1-4)GlcNAc | -0.533
